{"source": "patent US20260158074A1", "about": "“A Cell Surface Marker Signature for Arrhythmogenic Pluripotent Stem Cell-Derived Cardiomyocytes” (Western Sydney Local Health District, priority 2022, published 2026)", "test_system": "H9 human embryonic stem cell line containing a gCaMP6f reporter, differentiating aggregates", "assay": "Bioreactor PSC-CM differentiation with retinoic acid signalling activated: cTnT flow cytometry, qPCR, scRNA-seq, beat frequency", "format": "cell-based", "conditions": "RA treated cultures", "procedure": "The H9 cell line containing the gCaMP6f fluorescent calcium reporter was used for all experiments (provided by University of Queensland StemCore facility). Each production run was started from a frozen working cell bank (WCB) cryovial, which was expanded for 8 days in monolayer on matrigel (Corning) using the commercially available medium mTeSR™ Plus (Stem Cell Technologies) (FIG. 1). On Day −3, cells were inoculated at a density of 2.5-3.0×10^5 cells/mL in mTeSR 3D supplemented with 10 μM Y-27632 (TOCRIS Bioscience) and 10 ug/mL of a thermoresponsive polymer pNIPAM conjugated to fibronectin (Chen, X. et al. Tissue Eng Part C Methods 24, 146-157) to form aggregates. A DASbox (Eppendorf) stirred tank bioreactor system was used for aggregate formation and suspensions controlled at 37.2° C., pH 7.2, and 30% DO. At day −1, rapamycin (Merck) was added to a final concentration of 5 nM to enhance survival during differentiation. […]\nThe expression of cTnT was measured on a Cytoflex Flow Cytometer (Beckman Coulter). […]\nReactions were performed in technical triplicate. Quantitative PCR was performed on the BioRad CFX96 Real-Time PCR Detection System with standard cycling parameters described in the master mix protocol. […] Fold difference in expression was calculated using the comparative CT formula, using GAPDH cDNA from a reference sample. […]", "note": "For at least one compound, name, drawing or mass did not settle the structure."}
{"smiles": "CC1=C(/C=C/C(C)=C/C=C/C(C)=C/C(=O)O)C(C)(C)CCC1", "note": "[Retinoic acid, retinoic acid]", "values": [{"measurement": "expression of atrial and nodal genes NPPA, MYL2a, SHOX2 and HCN4", "result": "upregulated as early as day 8 and significantly by day 15"}, {"measurement": "expression of ventricular markers IRX4 and MLC2v", "result": "suppression"}]}
